Measured values: US20060009380A1
These are yes or no findings as the source states them, for the method shown. Some binding calls cover weakened binding; strength is not graded here.

Sequences of proteins named here, by UniProt entry; tags and fusion partners are left off. A change or cut given only in a name is not applied to a line headed by its entry. Residues count along the entry.
UniProt P04792: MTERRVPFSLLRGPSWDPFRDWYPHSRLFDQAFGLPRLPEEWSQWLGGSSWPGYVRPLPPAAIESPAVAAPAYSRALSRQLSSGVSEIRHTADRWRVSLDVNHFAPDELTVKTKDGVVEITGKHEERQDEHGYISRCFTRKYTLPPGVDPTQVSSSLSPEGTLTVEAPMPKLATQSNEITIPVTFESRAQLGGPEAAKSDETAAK
UniProt P49862, residues 30-253: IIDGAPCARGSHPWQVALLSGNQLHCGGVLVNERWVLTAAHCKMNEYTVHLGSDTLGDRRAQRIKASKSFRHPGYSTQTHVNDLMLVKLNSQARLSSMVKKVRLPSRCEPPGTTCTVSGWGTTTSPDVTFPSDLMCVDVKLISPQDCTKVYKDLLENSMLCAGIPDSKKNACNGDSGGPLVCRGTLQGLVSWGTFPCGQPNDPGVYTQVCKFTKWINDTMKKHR
UniProt P07355, residues 2-339: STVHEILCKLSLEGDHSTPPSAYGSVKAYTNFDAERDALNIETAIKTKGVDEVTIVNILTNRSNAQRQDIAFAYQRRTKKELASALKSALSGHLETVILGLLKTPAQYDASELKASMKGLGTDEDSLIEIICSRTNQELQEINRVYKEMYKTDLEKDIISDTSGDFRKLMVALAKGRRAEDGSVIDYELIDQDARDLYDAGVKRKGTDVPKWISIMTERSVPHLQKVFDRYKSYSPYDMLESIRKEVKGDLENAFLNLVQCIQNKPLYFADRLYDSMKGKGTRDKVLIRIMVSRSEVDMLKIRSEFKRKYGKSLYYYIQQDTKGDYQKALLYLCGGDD
UniProt P47929: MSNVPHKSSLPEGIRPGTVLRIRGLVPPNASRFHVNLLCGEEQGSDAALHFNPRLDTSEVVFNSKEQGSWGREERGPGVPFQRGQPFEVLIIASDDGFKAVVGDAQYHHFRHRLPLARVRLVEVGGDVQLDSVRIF
UniProt Q9NZT1: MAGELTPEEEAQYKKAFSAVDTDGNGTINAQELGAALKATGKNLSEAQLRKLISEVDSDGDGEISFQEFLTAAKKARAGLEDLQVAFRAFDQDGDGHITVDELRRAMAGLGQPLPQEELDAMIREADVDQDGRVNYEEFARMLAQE

Legend:
Assay in all cases: other experiments, method not described
Heat Shock P 27 = Heat Shock P 27 (UniProt P04792)
MRP14 or calgranulin B = target: T1, MRP14 or calgranulin B (UniProt P06702)
T1 sequence (looked up): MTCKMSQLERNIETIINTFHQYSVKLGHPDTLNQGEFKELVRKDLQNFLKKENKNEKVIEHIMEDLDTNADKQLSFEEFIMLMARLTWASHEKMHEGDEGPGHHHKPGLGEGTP

SCCE = SCCE (UniProt P49862)
annexin 2 = annexin 2 (UniProt P07355)
galectin 7 = galectin 7 (UniProt P47929)

Measured: binding

CLSP (calmodulin-like skin protein), the polypeptide of the invention (from UniProt Q9NZT1 2-146)
binds: all assays above
